Laboratory results: PubChem BioAssay AID652243 (Drosophila RNAi Screening Center, 2013)

Purpose: 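Fly regulators of androgen-dependent reporter output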 (primary screen)
System: Drosophila S2R+ cells
Reagent: long dsRNA against Drosophila genes
Time to read-out: 72 h (48 h, then 24 h hormone)
Challenge: synthetic androgen R1881 at 10 nM for 24 h
Measured: 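Firefly light from an androgen-responsive reporter and Renilla control light per well, raw and unnormalised, for each of two replicates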
Direction: firefly reporter light: higher = more light from androgen-responsive reporter; Renilla control light: higher = more constitutive control signal (cell number, transfection)
Call rule: 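Across duplicate plates, a knock-down whose log firefly/Renilla ratio shifted a set fold down or up from the GFP/LacZ control mean was a hit; the downward cut appears as both 1.5 and 3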
Meaning of the calls: active = hit: reporter lowered or raised; inactive = no hit
The deposit covers about 24,000 reagents; this is a random part of those with a known target gene and a result. Over the whole deposit, 246 (1%) got an active call. 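Plates not normalised; calls are printed but the firefly/Renilla ratio behind them is not deposited; fold cut for lowering reported inconsistently.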 Raw values vary from plate to plate and are shown uncorrected. Not stated in the record: the amount of reagent.

dsb (debris buster) [DRSC08542] gave firefly reporter light, replicate 1 = 1.16e5; firefly reporter light, replicate 2 = 45000; Renilla control light, replicate 1 = 1.58e6; Renilla control light, replicate 2 = 8.42e5; inactive.
CG9626 [DRSC16525] scored firefly reporter light, replicate 1 = 63626; firefly reporter light, replicate 2 = 54019; Renilla control light, replicate 1 = 5.27e5; Renilla control light, replicate 2 = 4.45e5; inactive.
Silencing of CG9626 [DRSC27021] came out at: firefly reporter light, replicate 1 = 4.56e5; firefly reporter light, replicate 2 = 3.38e5; Renilla control light, replicate 1 = 7.20e5; Renilla control light, replicate 2 = 2.56e5; inactive.
Depletion of Golgin84 (Golgin-84) [DRSC15269] resulted in: firefly reporter light, replicate 1 = 2.21e5; firefly reporter light, replicate 2 = 2.70e5; Renilla control light, replicate 1 = 2.60e6; Renilla control light, replicate 2 = 2.50e6; inactive.
Depletion of RpS5b (Ribosomal protein S5b) [DRSC16173] gave: firefly reporter light, replicate 1 = 2.07e5; firefly reporter light, replicate 2 = 2.08e5; Renilla control light, replicate 1 = 1.66e6; Renilla control light, replicate 2 = 2.00e6; inactive.
mbc (myoblast city) [DRSC16995] gave firefly reporter light, replicate 1 = 1.92e5; firefly reporter light, replicate 2 = 2.02e5; Renilla control light, replicate 1 = 2.45e6; Renilla control light, replicate 2 = 2.56e6; inactive.
Depletion of lic (licorne) [DRSC20347] gave: firefly reporter light, replicate 1 = 1.49e5; firefly reporter light, replicate 2 = 1.26e5; Renilla control light, replicate 1 = 7.90e5; Renilla control light, replicate 2 = 7.04e5; inactive.
lic (licorne) [DRSC36705] showed firefly reporter light, replicate 1 = 8.43e5; firefly reporter light, replicate 2 = 8.51e5; Renilla control light, replicate 1 = 1.22e6; Renilla control light, replicate 2 = 1.67e6; inactive.
Against CG4210 [DRSC15551] the deposit lists firefly reporter light, replicate 1 = 1.44e5; firefly reporter light, replicate 2 = 1.95e5; Renilla control light, replicate 1 = 2.28e6; Renilla control light, replicate 2 = 2.84e6; inactive.
CG4210 [DRSC27388] gave firefly reporter light, replicate 1 = 2.40e5; firefly reporter light, replicate 2 = 3.05e5; Renilla control light, replicate 1 = 7.68e5; Renilla control light, replicate 2 = 6.46e5; inactive.
Silencing of CG11929 [DRSC00339] came out at: firefly reporter light, replicate 1 = 89664; firefly reporter light, replicate 2 = 54674; Renilla control light, replicate 1 = 5.68e5; Renilla control light, replicate 2 = 4.41e5; inactive.
CG2614 [DRSC02711] showed firefly reporter light, replicate 1 = 4.39e5; firefly reporter light, replicate 2 = 5.17e5; Renilla control light, replicate 1 = 2.10e6; Renilla control light, replicate 2 = 4.05e6; inactive.
nanos [DRSC17018] scored firefly reporter light, replicate 1 = 85606; firefly reporter light, replicate 2 = 1.12e5; Renilla control light, replicate 1 = 1.53e6; Renilla control light, replicate 2 = 1.77e6; inactive.
With knock-down of nanos [DRSC25268], the screen gave firefly reporter light, replicate 1 = 3.44e5; firefly reporter light, replicate 2 = 2.16e5; Renilla control light, replicate 1 = 4.18e5; Renilla control light, replicate 2 = 4.57e5; inactive.
For CG14739 [DRSC14959], the values are firefly reporter light, replicate 1 = 92584; firefly reporter light, replicate 2 = 1.10e5; Renilla control light, replicate 1 = 1.43e6; Renilla control light, replicate 2 = 1.59e6; inactive.
Knock-down of opa (odd paired) [DRSC12384] resulted in: firefly reporter light, replicate 1 = 14504; firefly reporter light, replicate 2 = 17410; Renilla control light, replicate 1 = 2.49e5; Renilla control light, replicate 2 = 2.75e5; inactive.
Against opa (odd paired) [DRSC23152], the values are firefly reporter light, replicate 1 = 3.36e5; firefly reporter light, replicate 2 = 6.28e5; Renilla control light, replicate 1 = 9.89e5; Renilla control light, replicate 2 = 1.38e6; inactive.
opa (odd paired) [DRSC26411] scored firefly reporter light, replicate 1 = 4.89e5; firefly reporter light, replicate 2 = 3.27e5; Renilla control light, replicate 1 = 7.08e5; Renilla control light, replicate 2 = 4.90e5; inactive.
etaTry (etaTrypsin) [DRSC07613] scored firefly reporter light, replicate 1 = 3.50e5; firefly reporter light, replicate 2 = 1.42e5; Renilla control light, replicate 1 = 1.41e6; Renilla control light, replicate 2 = 1.04e6; inactive.
With knock-down of etaTry (etaTrypsin) [DRSC28998], the screen gave firefly reporter light, replicate 1 = 6.43e5; firefly reporter light, replicate 2 = 5.36e5; Renilla control light, replicate 1 = 1.50e6; Renilla control light, replicate 2 = 1.29e6; inactive.
CG11141 [DRSC06048] scored firefly reporter light, replicate 1 = 8.75e5; firefly reporter light, replicate 2 = 8.99e5; Renilla control light, replicate 1 = 1.74e6; Renilla control light, replicate 2 = 1.75e6; inactive.

3 consecutive records from above, for reference:
nanos [DRSC17018]: firefly reporter light, replicate 1 = 85606; firefly reporter light, replicate 2 = 1.12e5; Renilla control light, replicate 1 = 1.53e6; Renilla control light, replicate 2 = 1.77e6; call = inactive
nanos [DRSC25268]: firefly reporter light, replicate 1 = 3.44e5; firefly reporter light, replicate 2 = 2.16e5; Renilla control light, replicate 1 = 4.18e5; Renilla control light, replicate 2 = 4.57e5; call = inactive
CG14739 [DRSC14959]: firefly reporter light, replicate 1 = 92584; firefly reporter light, replicate 2 = 1.10e5; Renilla control light, replicate 1 = 1.43e6; Renilla control light, replicate 2 = 1.59e6; call = inactive
